According to the supplement of paper PMC7666118:
Some of the results follow.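 How the source made its calls: active = dose-dependent thermal stabilisation significant by F-test of dose-response against flat model at 10% FDR; inactive = not significant.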

The chains behind the UniProt entries cited, without tags or fusion partners. Where a name states a change or a piece, a line headed by the entry shows the natural chain unless it says otherwise.
UniProt Q14558: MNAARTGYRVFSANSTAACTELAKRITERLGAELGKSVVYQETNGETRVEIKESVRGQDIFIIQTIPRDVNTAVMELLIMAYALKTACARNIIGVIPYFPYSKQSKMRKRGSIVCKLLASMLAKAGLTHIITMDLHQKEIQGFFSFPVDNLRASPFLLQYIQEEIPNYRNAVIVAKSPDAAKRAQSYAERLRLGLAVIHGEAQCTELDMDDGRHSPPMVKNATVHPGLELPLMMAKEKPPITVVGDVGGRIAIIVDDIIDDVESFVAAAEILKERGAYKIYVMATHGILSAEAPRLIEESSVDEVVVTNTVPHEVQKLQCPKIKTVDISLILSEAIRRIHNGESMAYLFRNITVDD
UniProt O75832: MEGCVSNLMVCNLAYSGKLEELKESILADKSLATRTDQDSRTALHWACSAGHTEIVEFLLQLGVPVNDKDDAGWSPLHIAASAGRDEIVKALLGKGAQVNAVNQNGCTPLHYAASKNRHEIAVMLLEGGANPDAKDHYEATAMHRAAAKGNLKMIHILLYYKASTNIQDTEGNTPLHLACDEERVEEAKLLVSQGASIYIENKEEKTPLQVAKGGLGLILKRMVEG
UniProt Q00577: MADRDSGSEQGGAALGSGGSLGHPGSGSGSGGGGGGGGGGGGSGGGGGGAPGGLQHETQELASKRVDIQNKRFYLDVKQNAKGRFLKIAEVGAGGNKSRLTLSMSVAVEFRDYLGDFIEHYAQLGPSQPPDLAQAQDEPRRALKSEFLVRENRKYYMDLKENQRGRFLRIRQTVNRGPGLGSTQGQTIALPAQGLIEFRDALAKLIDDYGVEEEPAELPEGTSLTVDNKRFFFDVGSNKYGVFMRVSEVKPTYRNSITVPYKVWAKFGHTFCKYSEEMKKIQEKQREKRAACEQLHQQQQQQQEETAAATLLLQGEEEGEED
UniProt P48147: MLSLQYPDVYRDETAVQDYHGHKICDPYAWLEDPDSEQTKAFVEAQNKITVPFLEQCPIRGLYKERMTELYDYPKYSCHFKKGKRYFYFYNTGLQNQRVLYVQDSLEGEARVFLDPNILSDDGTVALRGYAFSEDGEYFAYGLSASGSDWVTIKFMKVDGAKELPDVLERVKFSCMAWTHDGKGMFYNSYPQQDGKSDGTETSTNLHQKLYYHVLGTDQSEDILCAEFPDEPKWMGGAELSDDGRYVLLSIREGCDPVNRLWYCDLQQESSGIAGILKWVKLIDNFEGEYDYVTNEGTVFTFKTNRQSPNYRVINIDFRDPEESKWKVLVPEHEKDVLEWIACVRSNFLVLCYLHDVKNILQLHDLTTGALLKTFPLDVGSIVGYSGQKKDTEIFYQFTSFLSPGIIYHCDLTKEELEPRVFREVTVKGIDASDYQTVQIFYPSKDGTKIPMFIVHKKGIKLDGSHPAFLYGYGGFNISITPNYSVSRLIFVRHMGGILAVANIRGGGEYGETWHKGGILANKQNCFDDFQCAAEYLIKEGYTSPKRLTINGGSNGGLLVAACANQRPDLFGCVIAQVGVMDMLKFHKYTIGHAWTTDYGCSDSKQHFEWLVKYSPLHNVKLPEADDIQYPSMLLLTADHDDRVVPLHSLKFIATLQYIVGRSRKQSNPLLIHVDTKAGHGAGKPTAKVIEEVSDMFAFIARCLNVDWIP
UniProt P28749: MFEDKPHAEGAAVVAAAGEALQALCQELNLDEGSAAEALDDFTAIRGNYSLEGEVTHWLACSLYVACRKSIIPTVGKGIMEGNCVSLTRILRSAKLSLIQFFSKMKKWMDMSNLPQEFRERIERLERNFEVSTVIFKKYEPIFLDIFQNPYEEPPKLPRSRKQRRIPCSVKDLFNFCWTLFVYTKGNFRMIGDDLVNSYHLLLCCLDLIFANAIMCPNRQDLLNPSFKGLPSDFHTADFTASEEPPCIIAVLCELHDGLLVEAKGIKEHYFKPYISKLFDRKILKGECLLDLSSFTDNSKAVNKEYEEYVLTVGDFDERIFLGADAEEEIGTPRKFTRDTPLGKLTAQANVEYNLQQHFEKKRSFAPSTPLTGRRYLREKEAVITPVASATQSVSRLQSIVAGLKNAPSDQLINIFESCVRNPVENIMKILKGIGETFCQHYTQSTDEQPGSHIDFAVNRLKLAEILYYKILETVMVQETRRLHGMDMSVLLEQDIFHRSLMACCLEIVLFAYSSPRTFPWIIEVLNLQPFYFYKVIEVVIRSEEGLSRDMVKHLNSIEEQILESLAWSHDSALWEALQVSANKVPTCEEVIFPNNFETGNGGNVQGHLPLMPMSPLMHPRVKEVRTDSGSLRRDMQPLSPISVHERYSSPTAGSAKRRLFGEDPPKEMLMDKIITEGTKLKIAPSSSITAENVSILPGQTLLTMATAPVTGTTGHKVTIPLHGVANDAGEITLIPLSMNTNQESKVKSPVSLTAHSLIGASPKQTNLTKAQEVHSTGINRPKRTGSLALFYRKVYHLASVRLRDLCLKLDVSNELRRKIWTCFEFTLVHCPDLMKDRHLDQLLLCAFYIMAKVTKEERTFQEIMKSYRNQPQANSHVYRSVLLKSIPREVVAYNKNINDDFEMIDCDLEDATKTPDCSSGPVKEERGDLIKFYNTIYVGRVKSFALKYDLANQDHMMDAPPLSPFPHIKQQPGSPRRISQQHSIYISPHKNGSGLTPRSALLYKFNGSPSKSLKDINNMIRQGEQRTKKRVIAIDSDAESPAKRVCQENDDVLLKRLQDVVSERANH
UniProt P28072: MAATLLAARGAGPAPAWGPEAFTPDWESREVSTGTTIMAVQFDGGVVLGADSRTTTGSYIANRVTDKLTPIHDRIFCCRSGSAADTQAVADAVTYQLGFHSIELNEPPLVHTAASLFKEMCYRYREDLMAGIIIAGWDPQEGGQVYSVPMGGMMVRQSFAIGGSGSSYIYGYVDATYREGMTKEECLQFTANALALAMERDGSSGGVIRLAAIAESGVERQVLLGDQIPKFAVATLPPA
UniProt P11216: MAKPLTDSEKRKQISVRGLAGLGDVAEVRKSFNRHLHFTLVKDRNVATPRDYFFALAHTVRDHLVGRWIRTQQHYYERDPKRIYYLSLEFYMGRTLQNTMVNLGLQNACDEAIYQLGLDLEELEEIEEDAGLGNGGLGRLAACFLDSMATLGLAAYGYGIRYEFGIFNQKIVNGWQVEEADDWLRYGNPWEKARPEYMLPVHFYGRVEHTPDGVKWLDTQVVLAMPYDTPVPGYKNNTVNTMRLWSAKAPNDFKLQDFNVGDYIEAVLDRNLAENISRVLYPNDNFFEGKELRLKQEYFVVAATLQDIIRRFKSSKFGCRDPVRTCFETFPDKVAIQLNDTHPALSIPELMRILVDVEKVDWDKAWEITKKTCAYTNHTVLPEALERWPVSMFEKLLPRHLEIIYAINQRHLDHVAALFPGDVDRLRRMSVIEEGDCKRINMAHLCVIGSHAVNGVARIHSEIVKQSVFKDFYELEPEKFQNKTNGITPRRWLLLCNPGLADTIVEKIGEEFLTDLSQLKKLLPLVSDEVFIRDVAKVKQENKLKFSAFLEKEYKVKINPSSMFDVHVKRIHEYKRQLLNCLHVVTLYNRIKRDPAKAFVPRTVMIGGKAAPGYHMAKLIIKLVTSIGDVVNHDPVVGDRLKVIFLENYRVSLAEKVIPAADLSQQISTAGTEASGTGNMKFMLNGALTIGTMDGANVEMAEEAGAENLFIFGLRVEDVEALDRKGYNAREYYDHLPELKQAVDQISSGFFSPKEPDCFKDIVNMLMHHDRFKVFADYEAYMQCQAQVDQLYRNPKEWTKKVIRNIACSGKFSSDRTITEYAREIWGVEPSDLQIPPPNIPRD
UniProt Q9NS91, whole entry: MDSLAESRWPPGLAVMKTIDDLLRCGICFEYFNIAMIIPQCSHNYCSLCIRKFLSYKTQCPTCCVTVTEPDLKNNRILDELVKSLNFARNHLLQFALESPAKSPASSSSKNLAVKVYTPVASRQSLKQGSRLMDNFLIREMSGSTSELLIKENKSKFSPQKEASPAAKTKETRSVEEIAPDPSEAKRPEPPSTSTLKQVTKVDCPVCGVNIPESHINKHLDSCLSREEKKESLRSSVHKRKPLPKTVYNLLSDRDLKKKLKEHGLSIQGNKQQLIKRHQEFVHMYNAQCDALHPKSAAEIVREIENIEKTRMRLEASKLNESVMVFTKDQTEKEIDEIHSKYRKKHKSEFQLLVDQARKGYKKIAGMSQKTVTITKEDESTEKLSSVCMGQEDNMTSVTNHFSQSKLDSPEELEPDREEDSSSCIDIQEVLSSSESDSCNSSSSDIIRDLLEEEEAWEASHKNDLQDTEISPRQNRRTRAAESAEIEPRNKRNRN
UniProt Q8NDT2: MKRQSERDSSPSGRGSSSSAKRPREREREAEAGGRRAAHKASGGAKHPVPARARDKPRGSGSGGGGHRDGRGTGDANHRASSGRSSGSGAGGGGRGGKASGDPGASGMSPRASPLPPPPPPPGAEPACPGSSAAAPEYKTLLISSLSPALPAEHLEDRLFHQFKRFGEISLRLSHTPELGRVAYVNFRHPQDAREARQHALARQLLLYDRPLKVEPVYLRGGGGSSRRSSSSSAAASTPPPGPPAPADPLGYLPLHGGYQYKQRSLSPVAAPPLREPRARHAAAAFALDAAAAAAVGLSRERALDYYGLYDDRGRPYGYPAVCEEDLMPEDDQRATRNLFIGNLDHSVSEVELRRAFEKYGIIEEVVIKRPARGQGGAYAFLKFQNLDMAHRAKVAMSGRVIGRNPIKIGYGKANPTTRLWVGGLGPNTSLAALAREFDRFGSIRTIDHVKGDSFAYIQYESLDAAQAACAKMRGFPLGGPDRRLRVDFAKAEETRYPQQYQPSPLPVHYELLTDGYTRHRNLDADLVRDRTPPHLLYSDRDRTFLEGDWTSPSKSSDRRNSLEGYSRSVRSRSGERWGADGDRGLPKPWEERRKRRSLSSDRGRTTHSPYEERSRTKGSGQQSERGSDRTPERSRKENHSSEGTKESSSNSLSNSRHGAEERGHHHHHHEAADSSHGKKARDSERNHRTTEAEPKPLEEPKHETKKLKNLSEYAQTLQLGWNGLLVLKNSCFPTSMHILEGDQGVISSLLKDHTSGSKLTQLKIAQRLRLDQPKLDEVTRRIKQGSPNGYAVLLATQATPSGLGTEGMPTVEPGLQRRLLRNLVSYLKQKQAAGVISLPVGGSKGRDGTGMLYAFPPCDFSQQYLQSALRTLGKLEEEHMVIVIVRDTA
UniProt Q09028, whole entry: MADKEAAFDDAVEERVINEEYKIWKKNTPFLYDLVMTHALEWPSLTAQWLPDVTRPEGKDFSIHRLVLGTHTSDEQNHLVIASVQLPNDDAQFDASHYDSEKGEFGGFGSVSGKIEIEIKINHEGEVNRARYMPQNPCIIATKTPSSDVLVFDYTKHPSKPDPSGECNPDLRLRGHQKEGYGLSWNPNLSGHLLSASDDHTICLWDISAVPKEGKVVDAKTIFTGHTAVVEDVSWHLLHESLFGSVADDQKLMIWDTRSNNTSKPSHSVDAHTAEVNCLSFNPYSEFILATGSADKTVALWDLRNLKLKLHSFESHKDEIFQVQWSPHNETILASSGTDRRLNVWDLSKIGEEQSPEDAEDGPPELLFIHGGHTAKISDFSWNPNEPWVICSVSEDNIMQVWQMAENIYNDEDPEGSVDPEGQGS
UniProt Q9Y617: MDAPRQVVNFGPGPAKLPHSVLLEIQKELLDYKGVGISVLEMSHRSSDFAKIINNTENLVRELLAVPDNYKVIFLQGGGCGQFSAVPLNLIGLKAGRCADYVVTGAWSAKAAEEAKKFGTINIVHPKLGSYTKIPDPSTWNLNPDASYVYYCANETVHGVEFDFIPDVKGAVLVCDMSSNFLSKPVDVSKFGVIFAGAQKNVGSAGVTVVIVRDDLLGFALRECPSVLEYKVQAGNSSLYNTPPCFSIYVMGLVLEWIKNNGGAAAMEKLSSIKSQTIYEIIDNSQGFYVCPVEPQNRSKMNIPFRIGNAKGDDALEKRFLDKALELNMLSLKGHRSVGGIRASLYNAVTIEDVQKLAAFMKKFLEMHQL
UniProt Q86YS6: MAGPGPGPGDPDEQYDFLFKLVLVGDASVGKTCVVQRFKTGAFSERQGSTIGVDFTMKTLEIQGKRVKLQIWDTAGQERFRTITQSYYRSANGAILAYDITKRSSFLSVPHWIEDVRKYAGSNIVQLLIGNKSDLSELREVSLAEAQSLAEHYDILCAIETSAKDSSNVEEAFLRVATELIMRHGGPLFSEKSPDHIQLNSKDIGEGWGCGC
UniProt Q16576, whole entry: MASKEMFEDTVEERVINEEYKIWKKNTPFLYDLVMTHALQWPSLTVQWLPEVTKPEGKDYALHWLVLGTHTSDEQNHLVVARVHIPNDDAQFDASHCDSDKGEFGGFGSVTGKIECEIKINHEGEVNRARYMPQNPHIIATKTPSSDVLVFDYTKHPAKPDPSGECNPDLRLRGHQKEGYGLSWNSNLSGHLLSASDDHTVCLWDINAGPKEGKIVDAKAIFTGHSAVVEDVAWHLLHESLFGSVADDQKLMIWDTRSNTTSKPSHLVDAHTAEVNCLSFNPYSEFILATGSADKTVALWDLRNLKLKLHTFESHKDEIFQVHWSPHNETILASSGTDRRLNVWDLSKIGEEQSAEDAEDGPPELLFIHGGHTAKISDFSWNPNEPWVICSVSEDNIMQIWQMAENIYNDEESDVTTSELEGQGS

Compound: Nc1nc2c(ncn2[C@@H]2O[C@H](COP(=O)(O)OP(=O)(O)OP(=O)(O)O)[C@@H](O)[C@H]2O)c(=O)[nH]1
Test: dose-dependent thermal stabilisation call (2D-TPP, DLPTP, 10% FDR) (binary (1 = stabilised)); higher = stabilised by the compound
Conditions: system: Jurkat gel-filtered lysate; concentration range 1-500 µM

Target	dose-dependent thermal stabilisation call
QARS (UniProt P47897)	active: 1
RBKS (UniProt Q9H477)	inactive: 0
PRPSAP1 (UniProt Q14558)	inactive: 0
PRKCB (UniProt P05771)	active: 1
PTPN22 (UniProt Q9Y2R2)	inactive: 0
RABGAP1 (UniProt Q9Y3P9)	inactive: 0
RAP1GAP (UniProt P47736)	inactive: 0
PSMA6 (UniProt P60900)	inactive: 0
RCOR3 (UniProt Q9P2K3)	inactive: 0
RB1CC1 (UniProt Q8TDY2)	inactive: 0
PTMA (UniProt P06454)	inactive: 0
PRPF4B (UniProt Q13523)	active: 1
UniProt Q6ZSR9	inactive: 0
PSMD2 (UniProt Q13200)	active: 1
PTRHD1 (UniProt Q6GMV3)	inactive: 0
RBMX (UniProt P38159)	inactive: 0
PSMD10 (UniProt O75832)	inactive: 0
RABGGTA (UniProt Q92696)	inactive: 0
RABGAP1L (UniProt Q5R372)	inactive: 0
PTPN23 (UniProt Q9H3S7)	inactive: 0
RAB35 (UniProt Q15286)	active: 1
RCN2 (UniProt Q14257)	inactive: 0
PRPF8 (UniProt Q6P2Q9)	active: 1
RBM22 (UniProt Q9NW64)	inactive: 0

Single entries from above:
For dose-dependent thermal stabilisation call, UniProt Q6ZSR9 reads inactive: 0
For dose-dependent thermal stabilisation call, QARS (UniProt P47897) reads active: 1
For dose-dependent thermal stabilisation call, PSMD2 (UniProt Q13200) reads active: 1

Additional records follow.

Target	dose-dependent thermal stabilisation call
RBX1 (UniProt P62877)	inactive: 0
QTRT1 (UniProt Q9BXR0)	inactive: 0
RAB11FIP1 (UniProt Q6WKZ4)	inactive: 0
PRMT5 (UniProt O14744)	inactive: 0
PRR14L (UniProt Q5THK1)	inactive: 0
PURA (UniProt Q00577)	inactive: 0
PRPF19 (UniProt Q9UMS4)	inactive: 0
R3HCC1L (UniProt Q7Z5L2)	inactive: 0
PREP (UniProt P48147)	inactive: 0
RBL1 (UniProt P28749)	inactive: 0
PSMB6 (UniProt P28072)	inactive: 0
RAB5A (UniProt P20339)	inactive: 0
PSMB3 (UniProt P49720)	inactive: 0
PYGB (UniProt P11216)	inactive: 0
QSER1 (UniProt Q2KHR3)	inactive: 0
RAD18 (UniProt Q9NS91)	active: 1
RAB7A (UniProt P51149)	active: 1
RBM15B (UniProt Q8NDT2)	inactive: 0
PSMB4 (UniProt P28070)	inactive: 0
QRICH1 (UniProt Q2TAL8)	inactive: 0
RBBP4 (UniProt Q09028)	inactive: 0
RBBP5 (UniProt Q15291)	inactive: 0
RBCK1 (UniProt Q9BYM8)	inactive: 0
PRRC2B (UniProt Q5JSZ5)	inactive: 0

Target	dose-dependent thermal stabilisation call
PXK (UniProt Q7Z7A4)	active: 1
RASA1 (UniProt P20936)	inactive: 0
RAVER1 (UniProt Q8IY67)	inactive: 0
RALGAPB (UniProt Q86X10)	inactive: 0
RBM33 (UniProt Q96EV2)	inactive: 0
RAB33A (UniProt Q14088)	active: 1
PRKACA (UniProt P17612)	inactive: 0
RALGAPA1 (UniProt Q6GYQ0)	active: 1
PSAT1 (UniProt Q9Y617)	inactive: 0
PXN (UniProt P49023)	inactive: 0
PSMC6 (UniProt P62333)	inactive: 0
RAB43 (UniProt Q86YS6)	active: 1
RBM14 (UniProt Q96PK6)	inactive: 0
RAB3A (UniProt P20336)	active: 1
RAB14 (UniProt P61106)	active: 1
PYCR1 (UniProt P32322)	inactive: 0
RBBP7 (UniProt Q16576)	active: 1
PSMD12 (UniProt O00232)	inactive: 0
PSMD6 (UniProt Q15008)	inactive: 0
RBM26 (UniProt Q5T8P6)	active: 1
PRKAG1 (UniProt P54619)	inactive: 0
PSMA3 (UniProt P25788)	inactive: 0
RANBP9 (UniProt Q96S59)	inactive: 0
PTPN2 (UniProt P17706)	inactive: 0
